Assay in all cases: proximity labelling; APEX2-FUS fusions transfected in HEK293T; 500 uM biotin-phenol 30 min, 1 mM H2O2 1 min; biotinylated proteins enriched on streptavidin magnetic beads, on-bead digestion, label-free LC-MS/MS; SAINT probability >=0.95 against untransfected control cells
Assay [1] concerns the target APEX2-FUS WT (human) (UniProt P35637).
In assay [2] the target is APEX2-FUS P525L (human) (UniProt P35637).
Assay [3] has as its target APEX2-FUS WT (human) (UniProt P35637). The source holds these as a separate data set.
For assay [4], the target named is APEX2-FUS P525L (human) (UniProt P35637). The source holds these as a separate data set.

Chains of the proteins cited; added tags and fusions are not shown. Lines headed by an entry give the natural chain unless they say otherwise; changes in a name come on top.
UniProt P35637: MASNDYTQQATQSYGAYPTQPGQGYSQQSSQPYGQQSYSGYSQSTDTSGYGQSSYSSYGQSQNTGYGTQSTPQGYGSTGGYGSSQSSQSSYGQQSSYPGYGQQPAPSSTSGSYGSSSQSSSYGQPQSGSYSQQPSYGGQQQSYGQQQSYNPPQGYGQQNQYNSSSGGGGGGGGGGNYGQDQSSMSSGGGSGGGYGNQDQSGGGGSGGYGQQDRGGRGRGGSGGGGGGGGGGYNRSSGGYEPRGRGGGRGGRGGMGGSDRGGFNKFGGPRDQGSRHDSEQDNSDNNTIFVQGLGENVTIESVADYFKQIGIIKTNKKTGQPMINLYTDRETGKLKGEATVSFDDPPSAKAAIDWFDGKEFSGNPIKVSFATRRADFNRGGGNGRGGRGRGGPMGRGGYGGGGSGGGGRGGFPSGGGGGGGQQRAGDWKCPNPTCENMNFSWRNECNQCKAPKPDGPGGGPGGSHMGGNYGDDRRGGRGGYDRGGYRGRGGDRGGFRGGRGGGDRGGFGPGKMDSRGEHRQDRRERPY
UniProt Q9HAV4: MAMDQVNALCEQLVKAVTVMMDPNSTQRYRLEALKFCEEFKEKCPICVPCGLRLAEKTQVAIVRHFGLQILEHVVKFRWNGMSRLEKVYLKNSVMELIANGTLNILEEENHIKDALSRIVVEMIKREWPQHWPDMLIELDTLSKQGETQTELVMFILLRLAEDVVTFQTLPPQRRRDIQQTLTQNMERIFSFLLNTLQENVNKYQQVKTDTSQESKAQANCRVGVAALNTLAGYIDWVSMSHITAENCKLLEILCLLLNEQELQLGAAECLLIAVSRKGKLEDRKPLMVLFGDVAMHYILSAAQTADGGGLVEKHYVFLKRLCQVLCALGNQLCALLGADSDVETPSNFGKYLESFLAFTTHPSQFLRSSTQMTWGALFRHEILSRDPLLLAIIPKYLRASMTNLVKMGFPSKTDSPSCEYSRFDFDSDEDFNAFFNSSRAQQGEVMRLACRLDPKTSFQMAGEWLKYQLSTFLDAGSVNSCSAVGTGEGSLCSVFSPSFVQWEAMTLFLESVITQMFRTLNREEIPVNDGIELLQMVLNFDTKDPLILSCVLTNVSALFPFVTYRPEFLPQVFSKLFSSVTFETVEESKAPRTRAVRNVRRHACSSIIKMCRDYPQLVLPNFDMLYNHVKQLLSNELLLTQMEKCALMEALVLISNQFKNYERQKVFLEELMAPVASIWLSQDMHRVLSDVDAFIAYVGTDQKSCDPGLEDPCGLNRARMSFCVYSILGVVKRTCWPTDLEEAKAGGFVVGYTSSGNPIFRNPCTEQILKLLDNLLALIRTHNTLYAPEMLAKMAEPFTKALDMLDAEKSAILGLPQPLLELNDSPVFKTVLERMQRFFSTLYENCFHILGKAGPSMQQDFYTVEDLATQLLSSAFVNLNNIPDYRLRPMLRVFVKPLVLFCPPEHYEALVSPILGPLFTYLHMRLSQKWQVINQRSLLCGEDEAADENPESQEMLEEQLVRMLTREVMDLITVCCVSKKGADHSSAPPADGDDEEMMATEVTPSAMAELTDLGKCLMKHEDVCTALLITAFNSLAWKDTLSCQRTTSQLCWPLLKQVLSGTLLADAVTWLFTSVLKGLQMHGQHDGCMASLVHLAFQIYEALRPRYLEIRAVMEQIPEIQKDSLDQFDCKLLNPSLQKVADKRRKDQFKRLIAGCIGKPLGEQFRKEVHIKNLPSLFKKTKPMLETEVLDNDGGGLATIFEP
UniProt Q14974: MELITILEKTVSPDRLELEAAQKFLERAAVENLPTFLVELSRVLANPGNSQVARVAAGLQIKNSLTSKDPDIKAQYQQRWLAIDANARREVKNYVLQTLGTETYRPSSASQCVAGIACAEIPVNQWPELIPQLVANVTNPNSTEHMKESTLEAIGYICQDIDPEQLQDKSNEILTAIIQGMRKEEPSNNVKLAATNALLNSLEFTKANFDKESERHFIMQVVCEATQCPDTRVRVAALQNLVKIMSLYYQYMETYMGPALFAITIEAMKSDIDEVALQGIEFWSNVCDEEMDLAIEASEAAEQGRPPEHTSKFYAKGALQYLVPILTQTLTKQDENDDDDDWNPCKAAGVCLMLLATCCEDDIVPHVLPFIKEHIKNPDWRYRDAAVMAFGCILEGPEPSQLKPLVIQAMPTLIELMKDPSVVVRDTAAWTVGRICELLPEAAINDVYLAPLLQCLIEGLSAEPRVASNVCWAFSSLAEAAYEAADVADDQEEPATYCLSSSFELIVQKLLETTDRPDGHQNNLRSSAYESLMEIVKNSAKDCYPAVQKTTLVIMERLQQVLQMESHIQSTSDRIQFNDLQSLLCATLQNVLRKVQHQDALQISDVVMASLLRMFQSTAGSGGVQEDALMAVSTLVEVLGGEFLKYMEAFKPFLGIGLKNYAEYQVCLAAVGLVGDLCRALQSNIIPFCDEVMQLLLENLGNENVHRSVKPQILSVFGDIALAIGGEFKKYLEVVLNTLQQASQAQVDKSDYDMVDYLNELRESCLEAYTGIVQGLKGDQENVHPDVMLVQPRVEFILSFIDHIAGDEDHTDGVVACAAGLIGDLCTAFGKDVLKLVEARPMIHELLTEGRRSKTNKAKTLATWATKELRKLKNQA
UniProt P55060: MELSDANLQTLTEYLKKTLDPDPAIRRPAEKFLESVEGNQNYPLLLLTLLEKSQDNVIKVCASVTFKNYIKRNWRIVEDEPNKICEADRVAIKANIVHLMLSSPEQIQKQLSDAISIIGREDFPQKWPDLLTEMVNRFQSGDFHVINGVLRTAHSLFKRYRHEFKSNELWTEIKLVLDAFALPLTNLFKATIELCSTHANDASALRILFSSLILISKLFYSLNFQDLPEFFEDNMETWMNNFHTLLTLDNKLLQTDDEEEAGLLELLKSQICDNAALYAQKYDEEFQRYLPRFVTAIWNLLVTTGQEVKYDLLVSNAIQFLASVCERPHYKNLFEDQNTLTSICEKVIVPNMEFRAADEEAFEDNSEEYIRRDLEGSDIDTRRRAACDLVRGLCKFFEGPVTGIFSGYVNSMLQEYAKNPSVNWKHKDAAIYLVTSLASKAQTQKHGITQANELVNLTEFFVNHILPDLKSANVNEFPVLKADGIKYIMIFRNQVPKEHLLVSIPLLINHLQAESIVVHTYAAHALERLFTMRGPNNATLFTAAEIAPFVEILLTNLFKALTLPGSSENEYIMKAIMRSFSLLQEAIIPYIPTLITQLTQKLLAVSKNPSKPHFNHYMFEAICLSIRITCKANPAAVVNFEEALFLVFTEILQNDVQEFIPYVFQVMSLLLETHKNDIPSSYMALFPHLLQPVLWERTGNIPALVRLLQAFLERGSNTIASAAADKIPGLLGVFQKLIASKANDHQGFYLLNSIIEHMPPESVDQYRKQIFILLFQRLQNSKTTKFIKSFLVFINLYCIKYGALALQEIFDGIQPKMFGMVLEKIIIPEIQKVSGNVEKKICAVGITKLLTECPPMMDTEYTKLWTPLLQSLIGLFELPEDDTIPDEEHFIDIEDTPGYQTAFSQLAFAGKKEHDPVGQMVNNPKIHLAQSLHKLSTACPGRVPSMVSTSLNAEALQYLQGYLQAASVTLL
UniProt P05198: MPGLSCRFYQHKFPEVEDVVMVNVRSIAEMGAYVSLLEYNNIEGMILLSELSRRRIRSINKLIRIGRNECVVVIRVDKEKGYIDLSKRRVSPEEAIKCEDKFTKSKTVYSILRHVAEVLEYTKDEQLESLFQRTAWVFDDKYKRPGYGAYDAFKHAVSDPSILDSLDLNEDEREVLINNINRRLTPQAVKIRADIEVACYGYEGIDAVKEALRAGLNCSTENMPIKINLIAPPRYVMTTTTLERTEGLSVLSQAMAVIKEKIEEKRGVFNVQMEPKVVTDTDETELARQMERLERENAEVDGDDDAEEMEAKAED
UniProt O15397: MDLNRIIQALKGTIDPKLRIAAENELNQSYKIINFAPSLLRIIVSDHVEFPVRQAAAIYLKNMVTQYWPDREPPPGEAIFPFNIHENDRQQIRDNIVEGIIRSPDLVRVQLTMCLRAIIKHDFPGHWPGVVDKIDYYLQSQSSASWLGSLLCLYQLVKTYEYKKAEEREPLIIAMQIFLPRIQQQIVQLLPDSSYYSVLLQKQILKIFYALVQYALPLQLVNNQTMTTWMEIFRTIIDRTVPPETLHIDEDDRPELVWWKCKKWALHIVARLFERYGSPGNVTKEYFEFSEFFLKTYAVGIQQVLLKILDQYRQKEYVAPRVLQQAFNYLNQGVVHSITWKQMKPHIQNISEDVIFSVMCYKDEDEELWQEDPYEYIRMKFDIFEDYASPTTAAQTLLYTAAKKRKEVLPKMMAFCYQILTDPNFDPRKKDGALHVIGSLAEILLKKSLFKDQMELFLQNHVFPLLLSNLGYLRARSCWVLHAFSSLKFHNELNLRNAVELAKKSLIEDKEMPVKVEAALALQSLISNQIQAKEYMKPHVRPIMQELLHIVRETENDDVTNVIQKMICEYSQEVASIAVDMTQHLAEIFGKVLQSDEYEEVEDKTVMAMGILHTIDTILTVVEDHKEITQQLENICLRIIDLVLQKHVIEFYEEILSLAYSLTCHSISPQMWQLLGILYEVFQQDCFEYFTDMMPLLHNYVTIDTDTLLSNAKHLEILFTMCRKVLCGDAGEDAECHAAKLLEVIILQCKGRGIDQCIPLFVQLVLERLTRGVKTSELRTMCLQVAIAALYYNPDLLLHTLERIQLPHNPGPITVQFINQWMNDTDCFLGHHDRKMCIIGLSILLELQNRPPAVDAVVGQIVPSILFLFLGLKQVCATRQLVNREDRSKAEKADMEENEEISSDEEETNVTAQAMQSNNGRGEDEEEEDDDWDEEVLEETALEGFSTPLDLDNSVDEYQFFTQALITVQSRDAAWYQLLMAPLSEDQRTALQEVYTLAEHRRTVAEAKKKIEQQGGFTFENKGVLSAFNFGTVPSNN

Like-named read-outs stand apart in the source and are kept apart here. These are yes or no findings as the source states them, for the method shown. In cells and extracts the contact can be indirect. These calls come from enrichment with a bait or labelling near it, and not all partners need be listed.

“exportin-5 (XPO5) (from UniProt Q9HAV4 1-1204)”: the binding result with APEX2-FUS WT (human) [1] and with APEX2-FUS P525L (human) [2] was “binds” each time.
“importin subunit beta-1 (IMB1; KPNB1) (from UniProt Q14974 1-876)”: the binding entry with APEX2-FUS WT (human) [1] and with APEX2-FUS P525L (human) [2] was “binds” in each case.
Take “chromosome segregation 1 like/exportin-2 (CSE1L/XPO2) (from UniProt P55060 1-971)”: the binding result with APEX2-FUS WT (human) [1] and with APEX2-FUS P525L (human) [2] was “binds” in each case.
Take eIF2α (from UniProt P05198 1-315): the binding result with APEX2-FUS WT (human) [1] and with APEX2-FUS P525L (human) [2] was “binds” each time.
As to “karyopherin subunit alpha 6 (KPNA6) (from UniProt O60684 1-536)”, the binding result with APEX2-FUS WT (human) [1] and in the assay with APEX2-FUS P525L (human) [2] was “binds” each time.
“importin-8 (IPO8) (from UniProt O15397 1-1037)”: the binding result with APEX2-FUS WT (human) [1] and with APEX2-FUS P525L (human) [2] was “binds” throughout.

B1: UPF1 (protein, UniProt Q92900 1-1129)
chain: MSVEAYGPSSQTLTFLDTEEAELLGADTQGSEFEFTDFTLPSQTQTPPGGPGGPGGGGAGGPGGAGAGAAAGQLDAQVGPEGILQNGAVDDSVAKTSQLLAELNFEEDEEDTYYTKDLPIHACSYCGIHDPACVVYCNTSKKWFCNGRGNTSGSHIVNHLVRAKCKEVTLHKDGPLGETVLECYNCGCRNVFLLGFIPAKADSVVVLLCRQPCASQSSLKDINWDSSQWQPLIQDRCFLSWLVKIPSEQEQLRARQITAQQINKLEELWKENPSATLEDLEKPGVDEEPQHVLLRYEDAYQYQNIFGPLVKLEADYDKKLKESQTQDNITVRWDLGLNKKRIAYFTLPKTDSGNEDLVIIWLRDMRLMQGDEICLRYKGDLAPLWKGIGHVIKVPDNYGDEIAIELRSSVGAPVEVTHNFQVDFVWKSTSFDRMQSALKTFAVDETSVSGYIYHKLLGHEVEDVIIKCQLPKRFTAQGLPDLNHSQVYAVKTVLQRPLSLIQGPPGTGKTVTSATIVYHLARQGNGPVLVCAPSNIAVDQLTEKIHQTGLKVVRLCAKSREAIDSPVSFLALHNQIRNMDSMPELQKLQQLKDETGELSSADEKRYRALKRTAERELLMNADVICCTCVGAGDPRLAKMQFRSILIDESTQATEPECMVPVVLGAKQLILVGDHCQLGPVVMCKKAAKAGLSQSLFERLVVLGIRPIRLQVQYRMHPALSAFPSNIFYEGSLQNGVTAADRVKKGFDFQWPQPDKPMFFYVTQGQEEIASSGTSYLNRTEAANVEKITTKLLKAGAKPDQIGIITPYEGQRSYLVQYMQFSGSLHTKLYQEVEIASVDAFQGREKDFIILSCVRANEHQGIGFLNDPRRLNVALTRARYGVIIVGNPKALSKQPLWNHLLNYYKEQKVLVEGPLNNLRESLMQFSKPRKLVNTINPGARFMTTAMYDAREAIIPGSVYDRSSQGRPSSMYFQTHDQIGMISAGPSHVAAMNIPIPFNLVMPPMPPPGYFGQANGPAAGRGTPKGKTGRGGRQKNRFGLPGPSQTNLPNSQASQDVASQPFSQGALTQGYISMSQPSQMSQPGLSQPELSQDSYLGDEFKSQIDVALSQDSTYQGERAYQHGGVTGLSQY
For the molecule B1, the binding entry in the assay with APEX2-FUS WT (human) [3] and with APEX2-FUS P525L (human) [4] was “binds” in each case.

B2: exportin-T (XPOT) (protein, UniProt O43592 1-962)
chain: MDEQALLGLNPNADSDFRQRALAYFEQLKISPDAWQVCAEALAQRTYSDDHVKFFCFQVLEHQVKYKYSELTTVQQQLIRETLISWLQAQMLNPQPEKTFIRNKAAQVFALLFVTEYLTKWPKFFFDILSVVDLNPRGVDLYLRILMAIDSELVDRDVVHTSEEARRNTLIKDTMREQCIPNLVESWYQILQNYQFTNSEVTCQCLEVVGAYVSWIDLSLIANDRFINMLLGHMSIEVLREEACDCLFEVVNKGMDPVDKMKLVESLCQVLQSAGFFSIDQEEDVDFLARFSKLVNGMGQSLIVSWSKLIKNGDIKNAQEALQAIETKVALMLQLLIHEDDDISSNIIGFCYDYLHILKQLTVLSDQQKANVEAIMLAVMKKLTYDEEYNFENEGEDEAMFVEYRKQLKLLLDRLAQVSPELLLASVRRVFSSTLQNWQTTRFMEVEVAIRLLYMLAEALPVSHGAHFSGDVSKASALQDMMRTLVTSGVSSYQHTSVTLEFFETVVRYEKFFTVEPQHIPCVLMAFLDHRGLRHSSAKVRSRTAYLFSRFVKSLNKQMNPFIEDILNRIQDLLELSPPENGHQSLLSSDDQLFIYETAGVLIVNSEYPAERKQALMRNLLTPLMEKFKILLEKLMLAQDEERQASLADCLNHAVGFASRTSKAFSNKQTVKQCGCSEVYLDCLQTFLPALSCPLQKDILRSGVRTFLHRMIICLEEEVLPFIPSASEHMLKDCEAKDLQEFIPLINQITAKFKIQVSPFLQQMFMPLLHAIFEVLLRPAEENDQSAALEKQMLRRSYFAFLQTVTGSGMSEVIANQGAENVERVLVTVIQGAVEYPDPIAQKTCFIILSKLVELWGGKDGPVGFADFVYKHIVPACFLAPLKQTFDLADAQTVLALSECAVTLKTIHLKRGPECVQYLQQEYLPSLQVAPEIIQEFCQALQQPDAKVFKNYLKVFFQRAKP
Regarding B2, the binding entry with APEX2-FUS WT (human) [3] and with APEX2-FUS P525L (human) [4] was “binds” in each case.

B3: MOV10 (protein, UniProt Q9HCE1 1-1003)
chain: MPSKFSCRQLREAGQCFESFLVVRGLDMETDRERLRTIYNRDFKISFGTPAPGFSSMLYGMKIANLAYVTKTRVRFFRLDRWADVRFPEKRRMKLGSDISKHHKSLLAKIFYDRAEYLHGKHGVDVEVQGPHEARDGQLLIRLDLNRKEVLTLRLRNGGTQSVTLTHLFPLCRTPQFAFYNEDQELPCPLGPGECYELHVHCKTSFVGYFPATVLWELLGPGESGSEGAGTFYIARFLAAVAHSPLAAQLKPMTPFKRTRITGNPVVTNRIEEGERPDRAKGYDLELSMALGTYYPPPRLRQLLPMLLQGTSIFTAPKEIAEIKAQLETALKWRNYEVKLRLLLHLEELQMEHDIRHYDLESVPMTWDPVDQNPRLLTLEVPGVTESRPSVLRGDHLFALLSSETHQEDPITYKGFVHKVELDRVKLSFSMSLLSRFVDGLTFKVNFTFNRQPLRVQHRALELTGRWLLWPMLFPVAPRDVPLLPSDVKLKLYDRSLESNPEQLQAMRHIVTGTTRPAPYIIFGPPGTGKTVTLVEAIKQVVKHLPKAHILACAPSNSGADLLCQRLRVHLPSSIYRLLAPSRDIRMVPEDIKPCCNWDAKKGEYVFPAKKKLQEYRVLITTLITAGRLVSAQFPIDHFTHIFIDEAGHCMEPESLVAIAGLMEVKETGDPGGQLVLAGDPRQLGPVLRSPLTQKHGLGYSLLERLLTYNSLYKKGPDGYDPQFITKLLRNYRSHPTILDIPNQLYYEGELQACADVVDRERFCRWAGLPRQGFPIIFHGVMGKDEREGNSPSFFNPEEAATVTSYLKLLLAPSSKKGKARLSPRSVGVISPYRKQVEKIRYCITKLDRELRGLDDIKDLKVGSVEEFQGQERSVILISTVRSSQSFVQLDLDFNLGFLKNPKRFNVAVTRAKALLIIVGNPLLLGHDPDWKVFLEFCKENGGYTGCPFPAKLDLQQGQNLLQGLSKLSPSTSGPHSHDYLPQEREGEGGLSLQVEPEWRNEL
Turning to B3, the binding entry with APEX2-FUS WT (human) [3] and with APEX2-FUS P525L (human) [4] was “binds” each time.

The values above are taken from PMC9372748.
